Test results taken from paper doi:10.1101/2025.10.16.682961.
Results are given in words; binding and its absence hold for the method and conditions named. Binding seen in cells or lysates may run through a third protein. Here binding means that the protein was enriched with, or labelled near, the bait; the list need not be complete.

T1: MIC4 (Toxoplasma gondii (endogenous in RH/Δku80/Δhxgprt/dTomato parasites)) (UniProt Q9XZH7)
T1 sequence: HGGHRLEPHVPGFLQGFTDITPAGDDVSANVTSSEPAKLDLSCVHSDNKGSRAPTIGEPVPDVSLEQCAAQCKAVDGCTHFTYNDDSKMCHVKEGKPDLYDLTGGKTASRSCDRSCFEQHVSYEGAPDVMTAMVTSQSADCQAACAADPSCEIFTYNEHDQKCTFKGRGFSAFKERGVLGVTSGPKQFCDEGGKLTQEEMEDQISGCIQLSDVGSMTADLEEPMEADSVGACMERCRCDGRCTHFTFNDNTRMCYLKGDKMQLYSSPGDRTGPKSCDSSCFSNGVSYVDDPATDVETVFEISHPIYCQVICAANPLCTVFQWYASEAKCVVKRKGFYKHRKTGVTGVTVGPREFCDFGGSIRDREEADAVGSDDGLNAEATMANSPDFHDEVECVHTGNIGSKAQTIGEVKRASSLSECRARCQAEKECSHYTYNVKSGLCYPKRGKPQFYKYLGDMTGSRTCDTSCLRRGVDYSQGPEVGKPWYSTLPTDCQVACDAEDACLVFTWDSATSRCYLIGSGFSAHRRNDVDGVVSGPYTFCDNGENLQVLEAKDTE


Target: T1, MIC4 (Toxoplasma gondii (endogenous in RH/Δku80/Δhxgprt/dTomato parasites))
Assay: affinity purification with mass spectrometry

Row | Binder | binding
1 | MIC1 (protein, UniProt O00834 17-456) VGPEAYGEASHSHSPASGRYIQQMLDQRCQEIAAELCQSGLRKMCVPSSRIVARNAVGITHQNTLQWRCFDTASLLESNQENNGVNCVDDCGHTIPCPGGVHRQNSNHATRHEILSKLVEEGVQRFCSPYQASANKYCNDKFPGTIARRSKGFGNNVEVAWRCYEKASLLYSVYAECASNCGTTWYCPGGRRGTSTELDKRHYTEEEGIRQAIGSVDSPCSEVEVCLPKDENPPLCLDESGQISRTGGGPPSQPPEMQQPADRSDERGGGKEQSPGGEAQPDHPTKGGNIDLPEKSTSPEKTPKTEIHGDSTKATLEEGQQLTLTFISTKLDVAVGSCHSLVANFLDGFLKFQTGSNSAFDVVEVEEPAGPAVLTIGLGHKGRLAVVLDYTRLNAALGSAAYVVEDSGCSSSEEVSFQGVGSGATLVVTTLGESPTAVSA | binds
2 | MIC6 (protein, UniProt Q9XYH7 24-349) SPFFAFLPGNGEIADNCSGNPCGGTAAGTCINTPSGYDCRCEPGYVLGVENDQVTCMMPSGVPMANFVQLSETPAACSSNPCGPEAAGTCKETNSGYICRCNQGYRISLDGTGNVTCIVRQESGCEENGCGPPDAVQSCRRLTGTAGRLCVCKENFIATIDASAHITCKRVPPHYRKPPFEFGKGGHPVDSEPSKRQREDEGESREPESDSTEPGRDQERRTPLEESQEPEGSTPDSQQSRGGSGSDSTESEEQGKEREEGSGHAGAIAGGVIGGLLLLSAAGAGVAYMRKSGSGGGEEIEYERGIEAAEASEVEVLVDLDSKTWD | binds
